Reference: article PMC9682993
No constants are given. Whether binding was seen depends on the method and setting. In cells and extracts the contact can be indirect. Some entries that bind do so weakly or less than the wild type.

Chains of the proteins cited; added tags and fusions are not shown.
UniProt P32121: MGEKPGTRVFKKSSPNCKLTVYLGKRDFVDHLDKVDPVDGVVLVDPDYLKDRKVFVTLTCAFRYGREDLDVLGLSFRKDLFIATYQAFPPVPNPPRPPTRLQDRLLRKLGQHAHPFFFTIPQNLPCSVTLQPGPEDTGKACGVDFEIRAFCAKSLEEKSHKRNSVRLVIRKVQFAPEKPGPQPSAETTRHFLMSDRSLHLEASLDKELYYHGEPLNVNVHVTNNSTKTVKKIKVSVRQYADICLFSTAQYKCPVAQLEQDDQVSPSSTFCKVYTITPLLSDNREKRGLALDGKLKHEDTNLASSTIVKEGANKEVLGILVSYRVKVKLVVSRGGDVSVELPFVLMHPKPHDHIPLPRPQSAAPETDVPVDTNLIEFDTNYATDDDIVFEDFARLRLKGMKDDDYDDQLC

Columns and labels:
[1] = molecular target: T1, chemokine receptor CCR1 (UniProt P32246); assay: co-IP; as a1, cells stimulated with CCL5 protein (CCL5-activated CCR1)
T1 sequence: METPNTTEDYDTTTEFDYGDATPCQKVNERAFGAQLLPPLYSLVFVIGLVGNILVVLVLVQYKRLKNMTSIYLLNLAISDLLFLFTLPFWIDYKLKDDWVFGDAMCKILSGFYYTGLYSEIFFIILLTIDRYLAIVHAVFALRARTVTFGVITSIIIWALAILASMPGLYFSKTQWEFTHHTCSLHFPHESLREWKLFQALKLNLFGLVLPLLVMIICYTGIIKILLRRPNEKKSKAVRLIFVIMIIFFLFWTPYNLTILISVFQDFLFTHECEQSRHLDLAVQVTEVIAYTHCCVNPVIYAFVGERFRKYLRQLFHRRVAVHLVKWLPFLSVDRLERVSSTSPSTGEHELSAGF

[2] = molecular target: T1, chemokine receptor CCR1; assay: co-IP; A549 cells cotransfected with CCR1 and Gαi or β-arrestin 2 plasmids, with or without CCL5 protein; Pierce classic magnetic IP/co-IP kit, lysate with the corresponding antibody overnight at 4°C, protein A/G beads, Western blot; precipitating antibody not named

With “β-arrestin 2 (from UniProt P32121 1-409)” the binding [1] was “binds weakly” and the binding [2] was “binds”.
